Data as given in PubChem BioAssay AID720505 (Drosophila RNAi Screening Center, 2013)
Purpose: 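Knock-downs that reduce calcium influx once internal stores are emptied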 (primary screen). Cells: Drosophila S2R+ cells. Reagents: long dsRNA against Drosophila genes. Conditions: thapsigargin (2 µM) in calcium-free buffer to empty internal stores, then 2 mM calcium added back. Detection: 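Stores emptied by 2 µM thapsigargin without calcium, then 2 mM calcium re-added; fluo-4 fluorescence followed by FLIPR in 384-well plates, per-well averaged endpoint, raw; two screen passes, some wells retested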. Direction: calcium signal and retest calcium signal: higher = more calcium entry after store depletion. Rule for the call: 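Knock-downs counted as hits when calcium entry dropped relative to STIM1 positive and Rho1 negative controls present on each plate; roughly 1500 genes called, with reductions of differing size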. Meaning of the calls: active = called as lowering calcium entry; inactive = not called.
In all, the deposit lists about 20,000 reagents; below is an unselected part of those with a known target gene and a result. In the full data, about 2,100 (10%) got an active call. 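Raw plate signals without normalisation; calls rest on control-based scores that were not deposited; replicate 2 separates called from uncalled poorly.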 Names joined by + are all predicted targets of the reagent. The record does not give: the amount of reagent, the time to read-out.

no.	Target gene	amplicon	calcium signal, replicate 1	calcium signal, replicate 2	retest calcium signal, replicate 1	retest calcium signal, replicate 2	outcome
1	CG15525	DRSC15062	175	150			inactive
2	Sema2b (Semaphorin 2b)	DRSC05609	139	92.8			inactive
3	Sema2b (Semaphorin 2b)	DRSC05611	64.8	143			inactive
4	Sema2b (Semaphorin 2b)	DRSC06867	127	116			inactive
5	CG7201	DRSC10786	98	74.2			inactive
6	bs (blistered)	DRSC04676	41.1	109	194	71.4	active
7	bs (blistered)	DRSC23068	110	79.4			inactive
8	Oga (O-GlcNAcase)	DRSC15901	207	301			inactive
9	CG5554	DRSC04513	109	172			inactive
10	CG17010	DRSC02559	93.8	141			inactive
11	alphaTub84B (alpha-Tubulin at 84B)	DRSC12622	115	79.1			active
12	wuc (Wake-up-call)	DRSC06152	108	181			inactive
13	tau	DRSC14569	120	144			inactive
14	tau	DRSC23046	98.6	137			inactive
15	Rpn13R (Regulatory particle non-ATPase 13-related)	DRSC18404	239	80.9			inactive
16	CG12236	DRSC17830	141	88.3			inactive
17	CG12236	DRSC17831	244	118			inactive
18	gukh (GUK-holder)	DRSC14768	141	136			inactive
19	gukh (GUK-holder)	DRSC15806	117	125			inactive
20	gukh (GUK-holder)	DRSC15944	114	245			inactive
21	Nlg3 (Neuroligin 3)	DRSC12524	124	180			inactive
22	Nlg3 (Neuroligin 3)	DRSC12540	123	104			inactive
23	Nlg3 (Neuroligin 3)	DRSC12574	104	93.7			inactive
24	eIF4E4 (eukaryotic translation initiation factor 4E4)	DRSC09701	69.2	66.8			inactive
25	CG15879	DRSC08487	65.1	111			inactive
26	Git (G protein-coupled receptor kinase interacting ArfGAP)	DRSC06620	193	156			inactive
27	CG13872	DRSC06431	165	168			inactive
28	CG3165	DRSC00573	116	240			inactive
29	CG33966	DRSC08256	78.8	101			inactive
30	CG12531	DRSC19466	65.7	106			active
31	Nlg1 (Neuroligin 1)	DRSC12532	118	146			inactive
32	Nlg1 (Neuroligin 1)	DRSC12533	132	145			inactive
33	Nlg1 (Neuroligin 1)	DRSC12539	125	150			inactive
34	CG6766	DRSC02991	64	96.4	98.7	149	active
35	CG13127	DRSC02223	101	89.3			inactive
36	Fbp1 (Fat body protein 1)	DRSC11166	93.4	174			inactive
37	Os-C	DRSC16778	105	136			inactive
38	Pgant9 (Polypeptide N-Acetylgalactosaminyltransferase 9)	DRSC05621	153	102			inactive
39	Pgant9 (Polypeptide N-Acetylgalactosaminyltransferase 9)	DRSC06584	124	124			inactive
40	Pgant9 (Polypeptide N-Acetylgalactosaminyltransferase 9)	DRSC07185	167	151			inactive
41	Pgant9 (Polypeptide N-Acetylgalactosaminyltransferase 9)	DRSC07186	156	204			inactive
42	Pgant9 (Polypeptide N-Acetylgalactosaminyltransferase 9)	DRSC07187	118	108			inactive
43	Pgant9 (Polypeptide N-Acetylgalactosaminyltransferase 9)	DRSC07189	125	98.3			inactive
44	Pgant9 (Polypeptide N-Acetylgalactosaminyltransferase 9)	DRSC21807	159	99.2			inactive
45	Pgant9 (Polypeptide N-Acetylgalactosaminyltransferase 9)	DRSC22076	101	281			inactive
46	CG1394	DRSC19539	74.9	86.7			active
47	CG5863	DRSC15898	115	220			inactive
48	CG5906	DRSC10557	46.8	85.5			active
49	Mrm2 (Mitochondrial rRNA methyltransferase 2)	DRSC14310	181	126			inactive
50	fd96Cb (forkhead domain 96Cb)	DRSC16947	248	129			inactive
51	BckdhB (Branched chain keto acid dehydrogenase E1 subunit beta)	DRSC21183	61.3	186			active
52	CG13309	DRSC09980	104	72.8			inactive
53	CG13744	DRSC06415	116	128			inactive
54	rut (rutabaga)	DRSC20367	90.9	136			inactive
55	rut (rutabaga)	DRSC22976	96.4	68.8			inactive
56	lili (lilipod)	DRSC14143	176	173			inactive
57	idc (identity crisis)	DRSC15680	183	309			inactive
58	Ae2 (Anion exchanger 2)	DRSC08997	101	128			inactive
59	Ae2 (Anion exchanger 2)	DRSC10969	53.2	82.4			active
60	CG3397	DRSC15487	143	136			inactive
61	CG5246	DRSC15751	172	129			inactive
62	Ir25a (Ionotropic receptor 25a)	DRSC00462	189	123			inactive
63	Mcr (Macroglobulin complement-related)	DRSC03366	146	238			inactive
64	Elal (Elastin-like)	DRSC16662	198	291			inactive
65	GM130 (Golgi matrix protein 130 kD)	DRSC04617	134	126			inactive
66	CG10077	DRSC09691	167	74			inactive
67	CG6443	DRSC02958	54.3	81.3			active
68	CG31922	DRSC21703	151	70.9			inactive
69	hyd (hyperplastic discs)	DRSC16971	143	103			inactive
70	UQCR-6.4 (Ubiquinol-cytochrome c reductase 6.4 kDa subunit)	DRSC06454	184	134			inactive
71	mRpS18B (mitochondrial ribosomal protein S18B)	DRSC02107	89.5	113			inactive
72	PpD5 (Protein phosphatase D5)	DRSC04641	151	84.9			inactive
73	PpD5 (Protein phosphatase D5)	DRSC23312	95.1	155			inactive
74	CG6163	DRSC10595	83.1	106			inactive
75	CG4619	DRSC02764	87.4	103			inactive
76	Sox102F	DRSC17204	110	157			inactive
77	CG31683 + CG18858	DRSC02703	211	85.5			inactive
78	GckIII (Germinal centre kinase III)	DRSC15729	140	183			inactive
79	alpha-Est3 (alpha-Esterase-3)	DRSC12615	101	118			inactive
80	Tep3 (Thioester-containing protein 3)	DRSC03452	68.3	171			active
81	muc (midline uncoordinated)	DRSC02832	159	75.2			inactive
82	muc (midline uncoordinated)	DRSC21940	98.6	193			inactive
83	lncRNA:CR9284 (long non-coding RNA:CR9284)	DRSC03899	95.8	7752			inactive
84	lncRNA:CR9284 (long non-coding RNA:CR9284)	DRSC04536	149	113			inactive
85	Dcp-1 (Death caspase-1)	DRSC04609	171	105			inactive
86	bdl (borderless)	DRSC00271	135	247			inactive
87	Alp2 (Alkaline phosphatase 2)	DRSC04354	55.9	190			inactive
88	CG43341	DRSC05055	97	94.2			inactive
89	Prosalpha6T (Proteasome alpha6 subunit, Testis-specific)	DRSC02873	121	89.4			inactive
90	CG17744	DRSC10286	130	79.2			inactive
91	CG11816	DRSC19428	109	98.5			inactive
92	Dgat2 (Diacylglycerol O-acyltransferase 2)	DRSC06803	196	126			inactive
93	CG30172	DRSC21519	136	105			inactive
94	Cdc16 (Cell division cycle 16)	DRSC16920	204	118			inactive
95	Gfrl (Glial cell line-derived neurotrophic family receptor-like)	DRSC15196	180	95.5			inactive
96	Gfrl (Glial cell line-derived neurotrophic family receptor-like)	DRSC15197	118	245			inactive
97	Gfrl (Glial cell line-derived neurotrophic family receptor-like)	DRSC15199	206	169			inactive
98	Gfrl (Glial cell line-derived neurotrophic family receptor-like)	DRSC15565	151	205			inactive
99	Gfrl (Glial cell line-derived neurotrophic family receptor-like)	DRSC15719	132	114			inactive
100	Act87E (Actin 87E)	DRSC22578	113	183			inactive
101	Cpr49Aa (Cuticular protein 49Aa)	DRSC07197	107	187			inactive
102	cnir (cornichon related)	DRSC00499	87.4	98.1			inactive
103	Ccp84Ad	DRSC12589	86.7	160	6386	130	inactive
104	Ccp84Ad	DRSC22854	78.5	86.2			inactive
105	Glut4EF (Glucose transporter 4 enhancer factor)	DRSC14347	176	83.8			inactive
106	Glut4EF (Glucose transporter 4 enhancer factor)	DRSC14512	163	89.7			inactive
107	Glut4EF (Glucose transporter 4 enhancer factor)	DRSC14541	156	80.6			inactive
108	Glut4EF (Glucose transporter 4 enhancer factor)	DRSC14542	69.7	135			active
109	Glut4EF (Glucose transporter 4 enhancer factor)	DRSC14543	57	138			active
110	Glut4EF (Glucose transporter 4 enhancer factor)	DRSC23038	133	180			inactive

Part of the list above, set out differently.
Target gene | amplicon | calcium signal, replicate 1 | calcium signal, replicate 2 | retest calcium signal, replicate 1 | retest calcium signal, replicate 2 | outcome
Nlg3 (Neuroligin 3) | DRSC12540 | 123 | 104 | – | – | inactive
Nlg3 (Neuroligin 3) | DRSC12574 | 104 | 93.7 | – | – | inactive
eIF4E4 (eukaryotic translation initiation factor 4E4) | DRSC09701 | 69.2 | 66.8 | – | – | inactive
CG15879 | DRSC08487 | 65.1 | 111 | – | – | inactive
Git (G protein-coupled receptor kinase interacting ArfGAP) | DRSC06620 | 193 | 156 | – | – | inactive
CG13872 | DRSC06431 | 165 | 168 | – | – | inactive
